Source: PubChem BioAssay AID1259308 (NCATS, 2017)
Shown is one part, drawn at random, of about 59,000 reagents tested. About 1,510 of them (2.6%) were called active. 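Calls use total luciferase alone and ignore viability, so some active siRNAs may act by altering cell number.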 The numbers tell different reagents against one gene apart. Not all columns of the deposit are shown.

Aim: 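Candidate targets for better recombinant protein yield in mammalian cells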 (primary screen)
System: human HEK293 embryonic kidney cells stably expressing firefly luciferase (HEK-CMV-Luc2-Hygro)
Reagents: single siRNA against human genes, 0.8 pmol siRNA per well
Time to read-out: 72 h
Measured: 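Reporter luminescence and viable-cell signal on separate replicate plates, given as percent of non-targeting control and median/MAD z-scores, plus per-cell luciferase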
Scale: total luciferase, z-score and total luciferase, % of control: higher = more reporter protein produced; luciferase per cell, z-score: higher = more reporter output per viable cell
Call rule: 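Active when the median/MAD z-score for overall luciferase is greater than 3; a gene was taken forward for validation with new siRNAs if at least two of its three siRNAs passed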
Calls: active = raised luciferase; inactive = no rise

no.	gene	reagent no.	total luciferase, z-score	total luciferase, % of control	luciferase per cell, z-score	outcome
1	MAGEF1 (MAGE family member F1)	1	-2.6	30.1	-2.91	inactive
2	MAGEF1 (MAGE family member F1)	2	-0.883	64.3	-0.39	inactive
3	MAGEF1 (MAGE family member F1)	3	-0.475	72.4	0.948	inactive
4	ADORA2B (adenosine A2b receptor)	1	-0.577	70.4	-0.678	inactive
5	ADORA2B (adenosine A2b receptor)	2	0.817	98.1	1.09	inactive
6	ADORA2B (adenosine A2b receptor)	3	0.0255	82.4	0.176	inactive
7	DNPH1 (2'-deoxynucleoside 5'-phosphate N-hydrolase 1)	1	0.693	95.7	-0.00271	inactive
8	DNPH1 (2'-deoxynucleoside 5'-phosphate N-hydrolase 1)	2	0.643	94.7	0.315	inactive
9	DNPH1 (2'-deoxynucleoside 5'-phosphate N-hydrolase 1)	3	-0.286	76.2	-0.226	inactive
10	SNX10 (sorting nexin 10)	1	5.1	183	4.67	active
11	SNX10 (sorting nexin 10)	2	-0.551	70.9	-0.925	inactive
12	SNX10 (sorting nexin 10)	3	0.393	89.7	-0.0952	inactive
13	NKX3-1 (NK3 homeobox 1)	1	0.0372	82.6	-0.366	inactive
14	NKX3-1 (NK3 homeobox 1)	2	-0.232	77.3	0.28	inactive
15	NKX3-1 (NK3 homeobox 1)	3	0.114	84.2	-0.378	inactive
16	ACTL7B (actin like 7B)	1	2.09	123	1.36	inactive
17	ACTL7B (actin like 7B)	2	-0.224	77.4	-0.42	inactive
18	ACTL7B (actin like 7B)	3	-0.127	79.4	-0.525	inactive
19	NUDT10 (nudix hydrolase 10)	1	2.95	140	2.56	inactive
20	NUDT10 (nudix hydrolase 10)	2	0.289	87.6	0.251	inactive
21	NUDT10 (nudix hydrolase 10)	3	-1.2	58	-1.26	inactive
22	PROM1 (prominin 1)	1	2.19	125	0.724	inactive
23	PROM1 (prominin 1)	2	2.68	135	2.48	inactive
24	PROM1 (prominin 1)	3	0.574	93.3	0.184	inactive
25	PRDX1 (peroxiredoxin 1)	1	0.884	99.5	0.296	inactive
26	PRDX1 (peroxiredoxin 1)	2	-1.43	53.4	-0.779	inactive
27	PRDX1 (peroxiredoxin 1)	3	-0.128	79.3	0.131	inactive
28	LITAF (lipopolysaccharide induced TNF factor)	1	1.35	109	1.21	inactive
29	LITAF (lipopolysaccharide induced TNF factor)	2	-0.0423	81	0.403	inactive
30	LITAF (lipopolysaccharide induced TNF factor)	3	-1.13	59.3	-1.37	inactive
31	GCNT4 (glucosaminyl (N-acetyl) transferase 4)	1	-0.134	79.2	-0.138	inactive
32	GCNT4 (glucosaminyl (N-acetyl) transferase 4)	2	-0.271	76.5	-0.325	inactive
33	GCNT4 (glucosaminyl (N-acetyl) transferase 4)	3	0.817	98.1	1.12	inactive
34	NPIPB7 (nuclear pore complex interacting protein family member B7)	1	1	102	0.516	inactive
35	NPIPB7 (nuclear pore complex interacting protein family member B7)	2	-1.16	58.9	-0.108	inactive
36	NPIPB7 (nuclear pore complex interacting protein family member B7)	3	-0.826	65.4	-0.497	inactive

Active calls (from the list above):
gene	reagent no.	total luciferase, z-score	total luciferase, % of control	luciferase per cell, z-score	outcome
SNX10 (sorting nexin 10)	1	5.1	183	4.67	active

Continued:
no.	gene	reagent no.	total luciferase, z-score	total luciferase, % of control	luciferase per cell, z-score	outcome
37	SNX5 (sorting nexin 5)	1	-0.439	73.1	-0.654	inactive
38	SNX5 (sorting nexin 5)	2	0.0431	82.7	0.838	inactive
39	SNX5 (sorting nexin 5)	3	0.338	88.6	0.634	inactive
40	BUB3 (BUB3 mitotic checkpoint protein)	1	-0.031	81.3	0.54	inactive
41	BUB3 (BUB3 mitotic checkpoint protein)	2	1.42	110	1.83	inactive
42	BUB3 (BUB3 mitotic checkpoint protein)	3	-1.65	49	-1.05	inactive
43	ZNF431 (zinc finger protein 431)	1	-0.506	71.8	-0.666	inactive
44	ZNF431 (zinc finger protein 431)	2	0.28	87.5	0.333	inactive
45	ZNF431 (zinc finger protein 431)	3	0.139	84.7	0.0156	inactive
46	MTUS2-AS1 (MTUS2 antisense RNA 1)	1	1.75	117	1.87	inactive
47	MTUS2-AS1 (MTUS2 antisense RNA 1)	2	0.381	89.5	0.872	inactive
48	MTUS2-AS1 (MTUS2 antisense RNA 1)	3	0.342	88.7	0.239	inactive
49	XYLB (xylulokinase)	1	-1.29	56.3	1.26	inactive
50	XYLB (xylulokinase)	2	1.96	121	1.51	inactive
51	XYLB (xylulokinase)	3	0.0809	83.5	-0.098	inactive
52	STAC2 (SH3 and cysteine rich domain 2)	1	-2.28	36.6	-2.48	inactive
53	STAC2 (SH3 and cysteine rich domain 2)	2	-0.439	73.2	0.472	inactive
54	STAC2 (SH3 and cysteine rich domain 2)	3	-0.746	67	-0.224	inactive
55	ACLY (ATP citrate lyase)	1	-0.947	63.1	-1.08	inactive
56	ACLY (ATP citrate lyase)	2	-0.516	71.6	-0.586	inactive
57	ACLY (ATP citrate lyase)	3	-0.935	63.3	-0.0952	inactive
58	PRICKLE4 (prickle planar cell polarity protein 4)	1	0.38	89.4	0.392	inactive
59	PRICKLE4 (prickle planar cell polarity protein 4)	2	0.88	99.4	1.34	inactive
60	PRICKLE4 (prickle planar cell polarity protein 4)	3	-1.34	55.2	-2.11	inactive
61	RETREG3 (reticulophagy regulator family member 3)	1	0.759	97	1.91	inactive
62	RETREG3 (reticulophagy regulator family member 3)	2	0.733	96.5	1.58	inactive
63	RETREG3 (reticulophagy regulator family member 3)	3	2.42	130	1.96	inactive
64	FASTKD4 (FASTK mitochondrial RNA regulator 4)	1	-0.251	76.9	-0.597	inactive
65	FASTKD4 (FASTK mitochondrial RNA regulator 4)	2	-0.78	66.4	-0.721	inactive
66	FASTKD4 (FASTK mitochondrial RNA regulator 4)	3	-0.629	69.4	-0.524	inactive
67	DECR2 (2,4-dienoyl-CoA reductase 2)	1	-1.57	50.7	-1.6	inactive
68	DECR2 (2,4-dienoyl-CoA reductase 2)	2	-1	62	-0.865	inactive
69	DECR2 (2,4-dienoyl-CoA reductase 2)	3	0.357	89	1.08	inactive
70	SPATA1 (spermatogenesis associated 1)	1	-0.36	74.7	-0.261	inactive
71	SPATA1 (spermatogenesis associated 1)	2	-0.466	72.6	-0.726	inactive
72	SPATA1 (spermatogenesis associated 1)	3	1.12	104	1.06	inactive
73	CIMIP5 (ciliary microtubule inner protein 5)	1	-1.18	58.4	0.422	inactive
74	CIMIP5 (ciliary microtubule inner protein 5)	2	0.0338	82.6	-0.0847	inactive
75	CIMIP5 (ciliary microtubule inner protein 5)	3	0.0953	83.8	0.022	inactive
